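Luminescence from an EWS-FLI1 target-promoter (NR0B1) reporter, set against a CMV-promoter reporter, two days after silencing single genes in TC32 Ewing sarcoma cells.
Each siRNA was applied at 20 nM.
A z-score of the log NR0B1-over-CMV signal, less the median of siRNAs with the same seed; more negative means a stronger specific loss of the NR0B1 reporter.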

This is part of the screen; most of the strongest results are not listed here.
Sequences are the guide (antisense) strand, without overhang.

- AUUGCUCAGAGUUUCAUCC against SCGB2A2 : seed-corrected z-score -0.3156
- UUUGCAGAAUGCUCCAUGG against OXCT1 : seed-corrected z-score -0.07565
- UCAUCAACUUGUACCAUGG against LARP4 : seed-corrected z-score 1.28
- UAGCUAUCAAAAUGAAUCC against FBXO33 : seed-corrected z-score -0.06395
- UCUGGUAAGGCAUUCCGGC against PKIB : seed-corrected z-score -0.7935
- UUGAGUUAAAUUCAAUGCC against SEMA3D : seed-corrected z-score -0.005187
- UGCUCGAUCAUAAGGCUCU against SGK2 : seed-corrected z-score 0.06118
- UCCACAUAUAGUAUUAUGG against MEMO1 : seed-corrected z-score 1.013
- UAUAGGUAUUGAGAUCAGG against CPN1 : seed-corrected z-score -0.5758
- UUAGUUCCAUAAUCCUUUG against UMPS : seed-corrected z-score 0.18
- AUUAGGCUCACAAUAAUCG against JAG1 : seed-corrected z-score -0.1001
- UCACCAGCAACAUUCGCAC against CCKBR : seed-corrected z-score 0.1639
- UCAGGAAAUCCAAUCCUCC against CD1B : seed-corrected z-score -1.558
- UUCUUGAUCUCCGCAAUGG against TECR : seed-corrected z-score 0.446
- UUACUGGUGACCACGAAGA against FUT2 : seed-corrected z-score 0.02374
- UCAAUAAAUAUGACAACCG against ZNF764 : seed-corrected z-score -0.1782
- AAGCUGAAGAGGUAGACGG against SLC16A3 : seed-corrected z-score -0.5585
- AUACUAAUGGAGGACGUGC against N4BP2L2 : seed-corrected z-score 0.0161
- UUUAGAUCAUCUAUCAUUG against DZIP1 : seed-corrected z-score -0.6606
- GCAGGUAUAGAGUCUUAGU against IQCF6 : seed-corrected z-score 0.1407
- UACCCGACCACAGAAAGCC against ANGPT4 : seed-corrected z-score -0.4213
- UAUCUCUGUAUUUUAGCCU against IGBP1 : seed-corrected z-score 0.5086
- UACCCAAUUCUCGUCAUCC against UBXN8 : seed-corrected z-score 0.7264
- UAAGUCCCAAUAACUGUUG against KRTAP1-1 : seed-corrected z-score 2.092
- UCACGCAAAACUUCCAGCG against ECE1 : seed-corrected z-score -0.05366
- UCUGGAGUGUUGCCCAUCC against SUMF2 : seed-corrected z-score -0.01147
- UUAGGGAUUGUACUAGAGC against OR52N4 : seed-corrected z-score 0.4522
- UAAGAGCCUAGGCAAGGUG against TREML2 : seed-corrected z-score 0.3123
- UCUACAACUUGCUUGUUCC against CACHD1 : seed-corrected z-score 0.1821
- CGAGUGAACGGCGAAGUCU against FAM163B : seed-corrected z-score 0.9854
- AUGUAAAACACUUAAGAUG against LMO4 : seed-corrected z-score 0.8966
- UCUUGUUCAAGCGUAAUGU against C16orf46 : seed-corrected z-score 0.6318
- AUCGGUAACACUUGACCUG against ZCCHC13 : seed-corrected z-score -0.2917
- UCCAUUCUAAUGAAGAGCC against KLHL30 : seed-corrected z-score 0.7844
- UAUAGGAGAGGGACUGUAC against RETNLB : seed-corrected z-score -0.3781
- UUUGGAGCAGUGCCUAUCA against LINC00336 : seed-corrected z-score 0.1064
- UUCCUGCUCAAAGAUGAUG against CRYBB2 : seed-corrected z-score 0.2711
- AAAUCUCUGAUUCAAGGUC against HHEX : seed-corrected z-score 0.4821
- UUCAAGUCCAGCGCAUUGG against AIMP2 : seed-corrected z-score -0.7723
- UCUUGAACCGUAAGUAGUC against VAMP7 : seed-corrected z-score -0.1767
- UAAGUGAUGAGCGGUGGUG against ZNF76 : seed-corrected z-score -0.009994
- UCAUUUUGAGCUUCCACUC against TP53INP1 : seed-corrected z-score 0.7772
- UUCCAGAUAACAGCAACAC against MPV17 : seed-corrected z-score 0.7076
- ACACUUGUAGAAGAGGUCC against TMEM38A : seed-corrected z-score 0.2044
- AAAGGGUCAGGAUCGGUCU against ZNF395 : seed-corrected z-score -0.3031
- UUGUAUCUCAGAGACCAUG against RIMBP2 : seed-corrected z-score 0.1114
- UGUUCGUCCAGUCUCCACC against EXOC3L1 : seed-corrected z-score 0.1029
- UUUUUCACUAGAAUCAUCC against MBNL1-AS1 : seed-corrected z-score -0.335
- UUCGCUUUUCUGAAGACGG against CLASP1 : seed-corrected z-score -0.3264
- UCAUUAGUACUGCUUGUUC against TCF12 : seed-corrected z-score -0.9118
- UAACGACCAGCCGUUCACU against ZDHHC11 : seed-corrected z-score 0.6715

For reference, 4 entries once more:

- UAGCUAUCAAAAUGAAUCC against FBXO33 | seed-corrected z-score -0.06395
- UCUACAACUUGCUUGUUCC against CACHD1 | seed-corrected z-score 0.1821
- UUGAGUUAAAUUCAAUGCC against SEMA3D | seed-corrected z-score -0.005187
- UAAGUGAUGAGCGGUGGUG against ZNF76 | seed-corrected z-score -0.009994

The results are deposited in PubChem (AID1159506; NCATS, 2015).